Assay results published in article PMC8257531.
Results are given in words; binding and its absence hold for the method and conditions named. Binding seen in cells or lysates may run through a third protein. A yes stands for co-enrichment or nearness to the bait. Other partners may have been found.

Molecular target: T1, ARL15^A86L (BioID bait) (UniProt Q9NXU5)
T1 sequence: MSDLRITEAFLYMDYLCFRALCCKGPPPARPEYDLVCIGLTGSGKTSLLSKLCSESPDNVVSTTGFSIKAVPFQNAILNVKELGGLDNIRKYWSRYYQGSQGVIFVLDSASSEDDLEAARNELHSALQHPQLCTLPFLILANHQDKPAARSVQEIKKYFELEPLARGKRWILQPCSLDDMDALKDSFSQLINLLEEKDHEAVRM
Experiment: proximity labelling; BioID; cleared lysates of ARL15^A86L expressing Flp-In T-REx HeLa cells on streptavidin beads, on-bead trypsin digestion, mass spectrometry; SAINT AvgP >= 0.95

B1: GOLGA3 (protein, UniProt Q08378 1-1498)
chain: MDGASAEQDGLQEDRSHSGPSSLPEAPLKPPGPLVPPDQQDKVQCAEVNRASTEGESPDGPGQGGLCQNGPTPPFPDPPSSLDPTTSPVGPDASPGVAGFHDNLRKSQGTSAEGSVRKEALQSLRLSLPMQETQLCSTDSPLPLEKEEQVRLQARKWLEEQLKQYRVKRQQERSSQPATKTRLFSTLDPELMLNPENLPRASTLAMTKEYSFLRTSVPRGPKVGSLGLPAHPREKKTSKSSKIRSLADYRTEDSNAGNSGGNVPAPDSTKGSLKQNRSSAASVVSEISLSPDTDDRLENTSLAGDSVSEVDGNDSDSSSYSSASTRGTYGILSKTVGTQDTPYMVNGQEIPADTLGQFPSIKDVLQAAAAEHQDQGQEVNGEVRSRRDSICSSVSLESSAAETQEEMLQVLKEKMRLEGQLEALSLEASQALKEKAELQAQLAALSTKLQAQVECSHSSQQRQDSLSSEVDTLKQSCWDLERAMTDLQNMLEAKNASLASSNNDLQVAEEQYQRLMAKVEDMQRSMLSKDNTVHDLRQQMTALQSQLQQVQLERTTLTSKLKASQAEISSLQSVRQWYQQQLALAQEARVRLQGEMAHIQVGQMTQAGLLEHLKLENVSLSQQLTETQHRSMKEKGRIAAQLQGIEADMLDQEAAFMQIQEAKTMVEEDLQRRLEEFEGERERLQRMADSAASLEQQLEQVKLTLLQRDQQLEALQQEHLDLMKQLTLTQEALQSREQSLDALQTHYDELQARLGELQGEAASREDTICLLQNEKIILEAALQAAKSGKEELDRGARRLEEGTEETSETLEKLREELAIKSGQVEHLQQETAALKKQMQKIKEQFLQQKVMVEAYRRDATSKDQLISELKATRKRLDSELKELRQELMQVHGEKRTAEAELSRLHREVAQVRQHMADLEGHLQSAQKERDEMETHLQSLQFDKEQMVAVTEANEALKKQIEELQQEARKAITEQKQKMRRLGSDLTSAQKEMKTKHKAYENAVGILSRRLQEALAAKEAADAELGQLRAQGGSSDSSLALHERIQALEAELQAVSHSKTLLEKELQEVIALTSQELEESREKVLELEDELQESRGFRKKIKRLEESNKKLALELEHEKGKLTGLGQSNAALREHNSILETALAKREADLVQLNLQVQAVLQRKEEEDRQMKHLVQALQASLEKEKEKVNSLKEQVAAAKVEAGHNRRHFKAASLELSEVKKELQAKEHLVQKLQAEADDLQIREGKHSQEIAQFQAELAEARAQLQLLQKQLDEQLSKQPVGNQEMENLKWEVDQKEREIQSLKQQLDLTEQQGRKELEGLQQLLQNVKSELEMAQEDLSMTQKDKFMLQAKVSELKNNMKTLLQQNQQLKLDLRRGAAKTRKEPKGEASSSNPATPIKIPDCPVPASLLEELLRPPPAVSKEPLKNLNSCLQQLKQEMDSLQRQMEEHALTVHESLSSWTPLEPATASPVPPGGHAGPRGDPQRHSQSRASKEGPGE
  binding: binds

B2: Golgi SNAP receptor complex member 1 (GOSR1) (protein, UniProt O95249 1-250)
chain: MAAGTSSYWEDLRKQARQLENELDLKLVSFSKLCTSYSHSSTRDGRRDRYSSDTTPLLNGSSQDRMFETMAIEIEQLLARLTGVNDKMAEYTNSAGVPSLNAALMHTLQRHRDILQDYTHEFHKTKANFMAIRERENLMGSVRKDIESYKSGSGVNNRRTELFLKEHDHLRNSDRLIEETISIAMATKENMTSQRGMLKSIHSKMNTLANRFPAVNSLIQRINLRKRRDSLILGGVIGICTILLLLYAFH
  binding: binds
